Source: PubChem BioAssay AID1259254 (NCATS, 2017)
Here is one part, drawn at random, of about 59,000 deposited reagents. About 1,550 of all reagents (2.6%) were called active. 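G2 share is only a proxy for re-replication; each gene was hit by three separate siRNAs, and active genes were retested.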 Raw values vary from plate to plate and are shown uncorrected. The numbers tell different reagents against one gene apart. Reagent sequences are not shown. Not stated in the record: the amount of reagent.

- Aim: 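Finding genes that stop cells copying their DNA twice in one cycle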 (primary screen)
- Cell system: human HCT116 colorectal cancer cells
- Reagent: single siRNA against human genes
- Time to read-out: 3 days
- Read-out: 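Nuclei stained with Hoechst and imaged; cell-cycle phase assigned by DNA content; G2 share scaled per plate, non-targeting siRNA 0%, GMNN siRNA 100%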
- Scale: G2 robust z-score and G2 cells, % of GMNN control: higher = more G2 cells, more excess DNA replication; raw share of cells in G2: higher = larger share of cells with G2 DNA content
- Hit rule: 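Active siRNAs have a G2 robust z of 5 or more median absolute deviations over the median, which in these data means about 38% or higher of GMNN control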

no.	Target gene	reagent	G2 robust z-score	G2 cells, % of GMNN control	raw share of cells in G2 (%)	activity call
1	ARHGAP23	1	-0.909	-3.43	1.94	inactive
2	ARHGAP23	2	-0.449	-0.193	4.27	inactive
3	ARHGAP23	3	0.94	9.58	9.04	inactive
4	FASLG	1	0.976	9.84	9.92	inactive
5	FASLG	2	-0.306	0.813	4.39	inactive
6	FASLG	3	-0.235	1.31	4.04	inactive
7	RCOR2	1	0.0563	3.36	7.56	inactive
8	RCOR2	2	0.983	9.88	8.32	inactive
9	RCOR2	3	1.44	13.1	10.2	inactive
10	HAS3	1	1.83	15.9	11.7	inactive
11	HAS3	2	-0.4	0.155	4.26	inactive
12	HAS3	3	0.187	4.28	6.6	inactive
13	MAOB	1	-0.866	-3.13	2.16	inactive
14	MAOB	2	1.3	12.1	10	inactive
15	MAOB	3	-0.309	0.797	5.79	inactive
16	PSMD14	1	-0.591	-1.19	6.01	inactive
17	PSMD14	2	1.09	10.7	10.3	inactive
18	PSMD14	3	1.05	10.3	7.19	inactive
19	RAD51B	1	-0.104	2.23	4.89	inactive
20	RAD51B	2	-0.668	-1.73	4.02	inactive
21	RAD51B	3	2.73	22.2	12.6	inactive
22	CYP1B1	1	-1.04	-4.35	2.6	inactive
23	CYP1B1	2	2.29	19	11.8	inactive
24	CYP1B1	3	-1.16	-5.22	3.08	inactive
25	RAB44	1	0.816	8.71	6.98	inactive
26	RAB44	2	-0.697	-1.94	2.75	inactive
27	RAB44	3	1.13	10.9	9.31	inactive

Look-ups from the list.
RAB44 #1, G2 robust z-score: 0.816
MAOB #3, activity call: inactive
FASLG #3, raw share of cells in G2 (%): 4.04
ARHGAP23 #2, G2 cells, % of GMNN control: -0.193

The listing continues.
no.	Target gene	reagent	G2 robust z-score	G2 cells, % of GMNN control	raw share of cells in G2 (%)	activity call
28	H2BW1	1	-0.565	-1.01	3.24	inactive
29	H2BW1	2	-0.0246	2.79	3.9	inactive
30	H2BW1	3	0.343	5.38	4.46	inactive
31	HMHB1	1	-0.0774	2.42	4.16	inactive
32	HMHB1	2	1.58	14.1	8.76	inactive
33	HMHB1	3	1.37	12.6	9.04	inactive
34	FMNL1-DT	1	2.16	18.1	11.2	inactive
35	FMNL1-DT	2	0.135	3.92	5.77	inactive
36	FMNL1-DT	3	-0.834	-2.9	2.99	inactive
37	ZCCHC17	1	-1.44	-7.18	1.03	inactive
38	ZCCHC17	2	0.689	7.82	7.56	inactive
39	ZCCHC17	3	1.71	15	8.14	inactive
40	ADH5P4	1	0.35	5.43	7.08	inactive
41	ADH5P4	2	0.269	4.86	6.06	inactive
42	ADH5P4	3	4.05	31.5	19.5	inactive
43	RFPL4A	1	-0.463	-0.288	3.2	inactive
44	RFPL4A	2	0.509	6.55	5.59	inactive
45	RFPL4A	3	1.74	15.2	7.29	inactive
46	FRY	1	-0.846	-2.99	3.98	inactive
47	FRY	2	-0.129	2.06	4.8	inactive
48	FRY	3	-0.713	-2.05	2.66	inactive
49	KIF1B	1	-0.895	-3.33	5.03	inactive
50	KIF1B	2	1.2	11.4	7.98	inactive
51	KIF1B	3	0.704	7.92	6.58	inactive
52	ZC3H12A	1	0.371	5.58	6.76	inactive
53	ZC3H12A	2	-0.576	-1.09	3.83	inactive
54	ZC3H12A	3	-0.465	-0.305	2.29	inactive
55	PCDH17	1	-0.475	-0.372	3.87	inactive
56	PCDH17	2	0.648	7.53	6.69	inactive
57	PCDH17	3	0.0152	3.07	7.56	inactive
58	COASY	1	0.0971	3.65	6.81	inactive
59	COASY	2	-0.594	-1.21	5	inactive
60	COASY	3	-0.363	0.417	4.17	inactive
61	ADGRL4	1	1.79	15.6	11.4	inactive
62	ADGRL4	2	1.15	11.1	8.38	inactive
63	ADGRL4	3	-0.504	-0.581	3.09	inactive
64	TIMM29	1	-0.662	-1.69	3.37	inactive
65	TIMM29	2	1.71	15	7.69	inactive
66	TIMM29	3	0.271	4.87	4.47	inactive
67	RPS6KA4	1	1.37	12.6	9.51	inactive
68	RPS6KA4	2	-0.781	-2.53	4.27	inactive
69	RPS6KA4	3	4.26	32.9	14.2	inactive
